Experimental data from patent US11065257B2, “Substituted pyrazoloazepin-4-ones and their use as phosphodiesterase inhibitors” (LEO Pharma A/S, priority 2016, dated 2021).
pIC50: −log10 of the molar value. The structures given here were assigned with low confidence; some may be wrong.

By UniProt entry, the sequences of proteins in these tests, tags left out. Residues count along the entry.
UniProt Q08499, 380-740 limits assumed: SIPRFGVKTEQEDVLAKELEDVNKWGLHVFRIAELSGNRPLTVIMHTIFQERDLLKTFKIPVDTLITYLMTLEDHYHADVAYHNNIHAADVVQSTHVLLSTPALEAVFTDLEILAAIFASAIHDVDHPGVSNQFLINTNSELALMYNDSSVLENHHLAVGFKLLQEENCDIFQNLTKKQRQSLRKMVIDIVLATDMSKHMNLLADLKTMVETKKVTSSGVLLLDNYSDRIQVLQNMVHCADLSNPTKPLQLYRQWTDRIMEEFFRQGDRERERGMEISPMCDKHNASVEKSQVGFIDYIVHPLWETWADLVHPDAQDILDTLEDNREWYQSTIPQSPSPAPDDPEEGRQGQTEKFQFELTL

Target: human PDE4D catalytic domain (Homo sapiens, UniProt Q08499)
Experiment: PDE4 Assay
Conditions: read-out: PDE4 Potency Range; human PDE4D catalytic domain (S380-L740), TR-FRET with FAM-cAMP; expressed as a range of IC50
Description: The human PDE4D catalytic domain (UniProt no. Q08499 [S380-L740]) was incubated with a mixture of non-labelled cAMP (cyclic adenosine monophosphate) and fluorescein amidite (FAM) conjugated cAMP and titrated test or reference compound. Following brief incubation the enzymatic reaction was stopped by addition of binding buffer containing nanoparticles with immobilized trivalent metal ions capable of binding 1) AMP phospho groups and 2) terbium (Tb) donor fluorophores. Subsequent excitation of the Tb donor triggers time-resolved FRET to adjacent FAM acceptor molecules resulting in light emission. In the presence of a PDE4 inhibitor, AMP generation was reduced resulting in a lower fluorescence signal. The cAMP phosphodiester is not bound by the detection system.
The results were calculated as the molar concentrations resulting in 50% inhibition of the substrate cleavage compared to controls samples, and are expressed as a range of IC50 (nM).

SMILES: CCc1nn(CCCOC(=O)C2CCN(C(=O)N(C)C)CC2)c2c1C(=O)NCC1(CCOCC1)C2
- pIC50: 6.30 to 7.00
